Source: the supplement of paper PMC3334620
In all, about 33,000 sequences were measured (“E-score (-0.5 to 0.5)”: median about -0.0034, highest 2% from about 0.25 on). The list shows a part of the results.

These sequences were tested against T1, Yap3 (UniProt P38749) (assay: PBM E-score (8-mer binding enrichment) (E-score (-0.5 to 0.5)); higher = stronger / more preferred TF binding). Conditions: protein concentration: 100 nM; construct: GST-full length.
T1 sequence: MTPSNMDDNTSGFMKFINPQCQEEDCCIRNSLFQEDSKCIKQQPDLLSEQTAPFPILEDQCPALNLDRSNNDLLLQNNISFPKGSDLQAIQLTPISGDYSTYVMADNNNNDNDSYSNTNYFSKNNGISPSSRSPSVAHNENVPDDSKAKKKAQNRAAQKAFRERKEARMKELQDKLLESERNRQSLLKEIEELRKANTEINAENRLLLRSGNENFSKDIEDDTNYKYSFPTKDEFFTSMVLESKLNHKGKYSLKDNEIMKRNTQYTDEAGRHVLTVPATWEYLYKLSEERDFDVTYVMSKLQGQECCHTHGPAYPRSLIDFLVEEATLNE
How it was run: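 For each ungapped eight-base word taken together with its reverse complement, the Universal PBM Analysis Suite assigned an E-score. Binding data came from GST-tagged yeast transcription factors, applied at about 100-200 nM, on universal all-10-mer Agilent arrays made double-stranded by primer extension. Fluorescent anti-GST marked bound protein, and scans were normalised with masliner.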

Q: ACCTGCGA was tested. Which “PBM E-score” value did it give?
A: The value was -0.132.

Q: How did the “PBM E-score” value turn out when CAAATTCG was run?
A: The value was 0.107.

Q: For GCAGAACC, which “PBM E-score” value is on record?
A: Its value is -0.0873.

Q: For TCAAAAGA, which “PBM E-score” value is on record?
A: The value was 0.0523.

Q: With CCGGCCTC as the sequence, how does the “PBM E-score” value read?
A: Its value is -0.244.

Q: Which “PBM E-score” value does the source give for CATCTCGA here?
A: The value was 0.0432.

Q: Which “PBM E-score” value does the source give for GCCGGTAA here?
A: Its value is 0.0897.

Q: For AACTAACT, which “PBM E-score” value is on record?
A: The value was 0.0375.

Q: For ATAGTTCC, which “PBM E-score” value is on record?
A: The value was 0.155.

Q: For AAAACCTG, which “PBM E-score” value is on record?
A: Its value is -0.101.

Q: Which “PBM E-score” value does the source give for GATTCACA here?
A: The value was 0.00517.

Q: Which “PBM E-score” value does the source give for GTCTCAAA here?
A: Its value is -0.1.

Q: For CAAAACCA, which “PBM E-score” value is on record?
A: Its value is 0.189.

Q: With GAATCTTA as the sequence, how does the “PBM E-score” value read?
A: The value was 0.227.

Q: Which “PBM E-score” value does the source give for ATAAGTGC here?
A: The value was 0.063.

Q: Which “PBM E-score” value does the source give for GTCTTACA here?
A: Its value is -0.0632.

Q: How did the “PBM E-score” value turn out when ACAGCTTC was run?
A: Its value is -0.0761.

Q: With GTGGCTGA as the sequence, how does the “PBM E-score” value read?
A: The value was -0.0435.

Q: Which “PBM E-score” value does the source give for GTAGGGAA here?
A: Its value is 0.0975.

Q: Which “PBM E-score” value does the source give for CAAACCTC here?
A: Its value is -0.171.

Q: For CGGGATGA, which “PBM E-score” value is on record?
A: The value was -0.0895.

Q: How did the “PBM E-score” value turn out when CAGTTTAG was run?
A: Its value is -0.0276.

Q: Which “PBM E-score” value does the source give for CTCAAAAC here?
A: The value was 0.0422.

Q: CCCTCGTC was tested. Which “PBM E-score” value did it give?
A: Its value is -0.0664.

Q: With CGTCCTGA as the sequence, how does the “PBM E-score” value read?
A: The value was -0.191.

Q: GACTCAAA was tested. Which “PBM E-score” value did it give?
A: The value was -0.0937.

Q: With CTCTAAGA as the sequence, how does the “PBM E-score” value read?
A: Its value is 0.0797.

Q: CTATTATC was tested. Which “PBM E-score” value did it give?
A: Its value is 0.146.

Q: How did the “PBM E-score” value turn out when AACGCTCA was run?
A: The value was -0.0423.

Q: How did the “PBM E-score” value turn out when CCACTTAG was run?
A: The value was 0.00158.

Q: CCTGCCCC was tested. Which “PBM E-score” value did it give?
A: The value was -0.225.

Q: How did the “PBM E-score” value turn out when ATTCCGGC was run?
A: The value was -0.131.

Q: CAAACACC was tested. Which “PBM E-score” value did it give?
A: The value was -0.0241.

Q: With GATGAGTA as the sequence, how does the “PBM E-score” value read?
A: The value was 0.181.

Q: For CAGCGTCC, which “PBM E-score” value is on record?
A: The value was -0.0405.

Q: With CAATCTGC as the sequence, how does the “PBM E-score” value read?
A: The value was -0.0973.

Q: With GCCTCAGC as the sequence, how does the “PBM E-score” value read?
A: Its value is -0.146.

Q: For AATTATGC, which “PBM E-score” value is on record?
A: Its value is 0.273.

Q: With CATCTATA as the sequence, how does the “PBM E-score” value read?
A: The value was 0.138.

Q: For CCGCCCGG, which “PBM E-score” value is on record?
A: Its value is -0.138.

Q: GAGCAGTA was tested. Which “PBM E-score” value did it give?
A: Its value is 0.0415.

Q: With GCATTCGC as the sequence, how does the “PBM E-score” value read?
A: The value was -0.162.

Q: With AATGATCA as the sequence, how does the “PBM E-score” value read?
A: The value was 0.0663.

Q: AACGGTAC was tested. Which “PBM E-score” value did it give?
A: Its value is 0.238.

Q: How did the “PBM E-score” value turn out when CTCGTGTC was run?
A: Its value is -0.0754.

Q: With CTACTTTA as the sequence, how does the “PBM E-score” value read?
A: The value was 0.0863.

Q: Which “PBM E-score” value does the source give for TGAGTCAA here?
A: The value was 0.0132.

Q: With AGCCAGCA as the sequence, how does the “PBM E-score” value read?
A: Its value is -0.168.

Q: How did the “PBM E-score” value turn out when AAACGCGG was run?
A: Its value is 0.252.

Q: How did the “PBM E-score” value turn out when ATGGCTAA was run?
A: Its value is 0.00804.

Q: Which “PBM E-score” value does the source give for ATAGCTAA here?
A: Its value is -0.0659.

Q: CTCTACAG was tested. Which “PBM E-score” value did it give?
A: Its value is -0.0594.

Q: CAGTTCTA was tested. Which “PBM E-score” value did it give?
A: The value was -0.112.

Q: Which “PBM E-score” value does the source give for GGATGTAC here?
A: The value was 0.0205.

Q: For AAGATTCT, which “PBM E-score” value is on record?
A: Its value is -0.225.

Q: How did the “PBM E-score” value turn out when GTTCACGA was run?
A: The value was 0.0641.

Q: For AGCGACCA, which “PBM E-score” value is on record?
A: Its value is 0.0106.

Q: CTCTGAAA was tested. Which “PBM E-score” value did it give?
A: The value was 0.0611.

Q: ATTAAGCC was tested. Which “PBM E-score” value did it give?
A: Its value is -0.0321.

Q: GCAAATGC was tested. Which “PBM E-score” value did it give?
A: The value was -0.0569.

Q: How did the “PBM E-score” value turn out when ATCGAATC was run?
A: Its value is 0.107.

Q: CCGCCGAC was tested. Which “PBM E-score” value did it give?
A: The value was -0.141.

Q: AATTAGGT was tested. Which “PBM E-score” value did it give?
A: The value was 0.112.

Q: CGGACGTA was tested. Which “PBM E-score” value did it give?
A: The value was -0.128.

Q: How did the “PBM E-score” value turn out when CGTTAGTC was run?
A: The value was 0.179.

Q: With ATCTCCCG as the sequence, how does the “PBM E-score” value read?
A: Its value is -0.17.

Q: ACTAGGAA was tested. Which “PBM E-score” value did it give?
A: Its value is 0.0898.

Q: Which “PBM E-score” value does the source give for AATCTCAC here?
A: The value was -0.077.

Q: For GTACGGGA, which “PBM E-score” value is on record?
A: The value was 0.0263.

Q: Which “PBM E-score” value does the source give for AAAAGCTT here?
A: Its value is -0.128.

Q: With CAGTACAA as the sequence, how does the “PBM E-score” value read?
A: Its value is 0.0751.

Q: With ACATGTCC as the sequence, how does the “PBM E-score” value read?
A: Its value is 0.0585.

Q: How did the “PBM E-score” value turn out when GCCGGTAC was run?
A: Its value is -0.138.

Q: How did the “PBM E-score” value turn out when AAGAGAGA was run?
A: The value was -0.095.

Q: GCGCATCC was tested. Which “PBM E-score” value did it give?
A: Its value is -0.0827.

Q: Which “PBM E-score” value does the source give for GTATACAA here?
A: The value was 0.167.

Q: For CCATTGGG, which “PBM E-score” value is on record?
A: The value was -0.192.

Q: How did the “PBM E-score” value turn out when GGCAGTAC was run?
A: Its value is -0.0322.

Q: How did the “PBM E-score” value turn out when ATTTCAAG was run?
A: Its value is 0.132.

Q: How did the “PBM E-score” value turn out when AATTTAAG was run?
A: Its value is 0.106.

Q: Which “PBM E-score” value does the source give for AATTCCAG here?
A: The value was 0.135.

Q: Which “PBM E-score” value does the source give for CATCCTCA here?
A: Its value is 0.0404.

Q: CAGTGATA was tested. Which “PBM E-score” value did it give?
A: Its value is 0.0339.

Q: For GACAAAAA, which “PBM E-score” value is on record?
A: Its value is 0.315.

Q: How did the “PBM E-score” value turn out when CGTTGCGC was run?
A: Its value is 0.0582.

Q: For AGCGAAAT, which “PBM E-score” value is on record?
A: The value was -0.0147.

Q: Which “PBM E-score” value does the source give for GCGAAAGA here?
A: Its value is -0.00795.

Q: For GAATACAA, which “PBM E-score” value is on record?
A: The value was 0.109.

Q: How did the “PBM E-score” value turn out when ACGCCCTC was run?
A: Its value is -0.0612.

Q: With ATTGGCTC as the sequence, how does the “PBM E-score” value read?
A: Its value is 0.0983.

Q: CGAAGGTC was tested. Which “PBM E-score” value did it give?
A: Its value is -0.265.

Q: For ATCGGGGG, which “PBM E-score” value is on record?
A: The value was -0.314.

Q: Which “PBM E-score” value does the source give for ACGAGACA here?
A: The value was 0.0694.

Q: Which “PBM E-score” value does the source give for GTGTCAAA here?
A: Its value is 0.0844.
